# Results from PubChem BioAssay AID485290 (National Center for Advancing Translational Sciences (NCATS), 2010).
# Chains of the proteins cited; added tags and fusions are not shown.
# UniProt Q9NUW8, whole entry, looked up: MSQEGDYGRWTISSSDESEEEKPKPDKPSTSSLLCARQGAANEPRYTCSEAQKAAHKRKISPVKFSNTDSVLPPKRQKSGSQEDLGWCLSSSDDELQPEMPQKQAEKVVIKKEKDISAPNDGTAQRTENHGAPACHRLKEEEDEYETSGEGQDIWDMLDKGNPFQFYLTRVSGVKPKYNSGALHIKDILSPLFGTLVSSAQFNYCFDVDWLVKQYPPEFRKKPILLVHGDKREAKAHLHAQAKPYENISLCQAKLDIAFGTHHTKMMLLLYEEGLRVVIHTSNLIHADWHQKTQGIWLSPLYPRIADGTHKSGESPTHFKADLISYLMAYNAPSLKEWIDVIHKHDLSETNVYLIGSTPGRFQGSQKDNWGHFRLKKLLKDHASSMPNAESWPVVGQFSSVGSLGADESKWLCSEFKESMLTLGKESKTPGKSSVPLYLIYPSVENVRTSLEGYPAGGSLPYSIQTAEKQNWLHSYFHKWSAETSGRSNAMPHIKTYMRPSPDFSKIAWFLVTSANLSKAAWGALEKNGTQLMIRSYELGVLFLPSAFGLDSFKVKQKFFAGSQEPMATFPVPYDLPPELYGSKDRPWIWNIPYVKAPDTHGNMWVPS
# The hits were mostly taken out for another list; the other results follow. Calls of active or inactive are those of the source. The call rests on the fitted dose curve; in most records, active means well fitted inhibition curve with a large enough effect; inconclusive means small, poorly fitted or top-dose-only effect; inactive means no such curve, though single readings can be large or run the other way.
# Biological target: Tyrosyl-DNA phosphodiesterase 1 (Homo sapiens) (UniProt Q9NUW8)
# Assay: qHTS Assay for Inhibitors of Tyrosyl-DNA Phosphodiesterase (TDP1); further: nearly all actives have a fitted effect of over 40% in size
# Conditions: recombinant TDP1, AlphaScreen DNA substrate cleavage
# Description: NIH Molecular Libraries Probe Production Network [MLPCN]
# NIH Chemical Genomics Center [NCGC]
# Assay Provider: Yves Pommier and Christophe Marchand, National Cancer Institute
# Assay Title: qHTS Assay for Inhibitors of Tyrosyl-DNA Phosphodiesterase (TDP1); further: nearly all actives have a fitted effect of over 40% in size
# Human tyrosyl-DNA phosphodiesterase I (Tdp1) is a rational anticancer target because this enzyme is involved in the repair of DNA lesions created by the trapping of human DNA topoisomerase I (Top1) following treatment by anticancer agents such as camptothecins. Recombinant Tdp1 was expressed and purified from E. coli in the laboratory (Anthony et al, Nucleic Acids Research, 2007, Vol. 35, 4474-4484). A Tdp1 DNA substrate bearing a 5' biotin and a 3' phospho-tyrosine was obtained by custom synthesis. This oligonucleotidic DNA substrate was subsequently coupled to a fluorescein isothiocyanate (FITC) group via the free amino group present on the phospho-tyrosine. Tdp1 was screened against the NCGC small molecule library using the AlphaScreen (AS) detection method in which a streptavidin donor AS bead is bound at the 5' end and an anti-FITC AS acceptor bead is bound at the 3' end of the DNA oligonucleotidic substrate. In the presence of Tdp1, the enzyme cleaves the tyrosine-FITC group, leaving a 3' end phosphate on the DNA substrate. This cleavage reaction results in a loss of signal in AS.
# [1] 3 ul of buffer is dispensed in columns 3 & 4 as negative control (no enzyme and maximum signal),
# [2] 3 ul of enzyme (1 nM final) is dispensed in columns 1,2, 5-48,
# [3] 1 ul of substrate (15 nM final) is dispensed throughout the plate,
# [4] 1 ul of AS donor/acceptor bead mix (10 ug/ml final) is dispensed throughout the plate
# 3 ul of Tdp1 enzyme is dispensed to 1536-well Kalypsys black solid bottom plates. Compounds and controls (23 nl) are transferred via Kalypsys Pin Tool. The plates are incubated for 15 min at room temperature, and then 1 ul of substrate is added to start the reaction. After 5 min incubation at room temperature, 1 ul of AS donor/acceptor bead mix is added and the plates are further incubated for 10 min at room temperature. The detection is then performed on a PerkinElmer Envision reader.
# On the % scale 0 is the no-effect control and ±100 the full control effect.
smiles,measurement,setting,value
CN1C2CCC1CC(OC(=O)C(O)c1ccccc1)C2 (centres undefined),"activity change, negative = inhibition",at 56.1 µM (top of the series),inactive: -11.9%
CN1[C@@H]2CC[C@H]1CC(OC(=O)[C@@H](O)c1ccccc1)C2 (some centres undefined),"activity change, negative = inhibition",at 21 µM (top of the series),inactive: 13.3%
same,"activity change, negative = inhibition",at 130 µM (top of the series),inactive: 6.38%
O=C1NC(=O)c2c1c(-c1ccccc1)cc1[nH]c3ccc(O)cc3c21,"activity change, negative = inhibition",at 130 µM (top of the series),inactive: 23.3%
